The text below walks through data of doi:10.1101/2021.04.14.439766.

Sequences of proteins named here, by UniProt entry; tags and fusion partners are left off.
UniProt P68104: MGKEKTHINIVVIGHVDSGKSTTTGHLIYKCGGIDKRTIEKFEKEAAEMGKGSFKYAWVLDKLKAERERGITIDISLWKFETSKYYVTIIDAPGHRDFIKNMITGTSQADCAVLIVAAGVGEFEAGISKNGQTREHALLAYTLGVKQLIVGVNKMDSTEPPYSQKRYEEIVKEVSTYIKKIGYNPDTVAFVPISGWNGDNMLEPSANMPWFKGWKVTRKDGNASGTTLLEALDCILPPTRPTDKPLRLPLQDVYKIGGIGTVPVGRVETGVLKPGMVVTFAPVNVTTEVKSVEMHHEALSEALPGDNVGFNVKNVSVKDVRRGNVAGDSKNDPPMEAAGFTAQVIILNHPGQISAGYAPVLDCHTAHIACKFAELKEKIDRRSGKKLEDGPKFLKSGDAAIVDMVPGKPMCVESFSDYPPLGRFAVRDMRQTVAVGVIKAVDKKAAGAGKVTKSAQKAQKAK

The assay has as its target T1, DEP domain-containing 1 (DEPDC1) (human (endogenous in osteosarcoma cells)) (UniProt Q5TB30).
T1 sequence: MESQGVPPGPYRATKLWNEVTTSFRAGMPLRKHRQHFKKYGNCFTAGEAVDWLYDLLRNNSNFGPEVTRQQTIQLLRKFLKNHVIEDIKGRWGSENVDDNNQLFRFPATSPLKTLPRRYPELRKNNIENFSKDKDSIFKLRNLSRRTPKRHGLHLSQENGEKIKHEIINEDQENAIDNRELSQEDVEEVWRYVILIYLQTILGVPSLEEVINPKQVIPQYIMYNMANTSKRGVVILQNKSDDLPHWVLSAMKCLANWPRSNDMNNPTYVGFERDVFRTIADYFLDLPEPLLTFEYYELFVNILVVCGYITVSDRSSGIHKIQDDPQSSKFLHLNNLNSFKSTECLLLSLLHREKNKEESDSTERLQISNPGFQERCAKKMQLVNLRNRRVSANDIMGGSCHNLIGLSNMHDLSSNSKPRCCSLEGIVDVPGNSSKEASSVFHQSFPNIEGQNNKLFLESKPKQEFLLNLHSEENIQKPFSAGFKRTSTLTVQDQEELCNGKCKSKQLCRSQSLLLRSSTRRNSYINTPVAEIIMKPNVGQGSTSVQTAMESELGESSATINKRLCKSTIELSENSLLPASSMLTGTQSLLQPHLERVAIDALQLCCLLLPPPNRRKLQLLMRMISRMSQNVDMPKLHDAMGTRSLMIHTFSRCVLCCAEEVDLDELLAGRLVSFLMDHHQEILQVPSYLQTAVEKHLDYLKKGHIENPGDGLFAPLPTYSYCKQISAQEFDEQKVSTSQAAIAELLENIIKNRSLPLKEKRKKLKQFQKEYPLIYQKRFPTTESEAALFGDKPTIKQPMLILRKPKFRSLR
Put plainly: affinity purification with mass spectrometry.

Results are given in words; binding and its absence hold for the method and conditions named. Binding seen in cells or lysates may run through a third protein. These calls come from enrichment with a bait or labelling near it, and not all partners need be listed.

On to “Elongation Factor 1-alpha 1 (EEF1A1) (from UniProt P68104 1-462)”, for which the binding entry is reported as “binds”.
